Source: the supplement of paper PMC10849652
The other results are listed elsewhere or left out.

By UniProt entry, the sequences of proteins in these tests, tags left out. Where a name states a change or a piece, a line headed by the entry shows the natural chain unless it says otherwise.
UniProt P39687: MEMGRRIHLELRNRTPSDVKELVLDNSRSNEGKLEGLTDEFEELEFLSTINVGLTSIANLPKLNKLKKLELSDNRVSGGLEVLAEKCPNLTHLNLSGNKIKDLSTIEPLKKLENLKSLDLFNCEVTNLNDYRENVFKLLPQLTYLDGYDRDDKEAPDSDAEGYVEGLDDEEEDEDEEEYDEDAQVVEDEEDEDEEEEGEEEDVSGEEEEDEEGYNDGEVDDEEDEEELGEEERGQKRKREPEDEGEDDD
UniProt Q6NXT1: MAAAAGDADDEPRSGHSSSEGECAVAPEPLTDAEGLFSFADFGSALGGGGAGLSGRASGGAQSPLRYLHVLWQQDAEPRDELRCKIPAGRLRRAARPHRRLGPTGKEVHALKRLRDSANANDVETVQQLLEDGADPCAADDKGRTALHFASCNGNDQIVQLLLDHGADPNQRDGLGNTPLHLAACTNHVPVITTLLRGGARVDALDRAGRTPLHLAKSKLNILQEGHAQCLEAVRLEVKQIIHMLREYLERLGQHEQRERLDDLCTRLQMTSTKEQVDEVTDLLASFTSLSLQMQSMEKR
UniProt P78540: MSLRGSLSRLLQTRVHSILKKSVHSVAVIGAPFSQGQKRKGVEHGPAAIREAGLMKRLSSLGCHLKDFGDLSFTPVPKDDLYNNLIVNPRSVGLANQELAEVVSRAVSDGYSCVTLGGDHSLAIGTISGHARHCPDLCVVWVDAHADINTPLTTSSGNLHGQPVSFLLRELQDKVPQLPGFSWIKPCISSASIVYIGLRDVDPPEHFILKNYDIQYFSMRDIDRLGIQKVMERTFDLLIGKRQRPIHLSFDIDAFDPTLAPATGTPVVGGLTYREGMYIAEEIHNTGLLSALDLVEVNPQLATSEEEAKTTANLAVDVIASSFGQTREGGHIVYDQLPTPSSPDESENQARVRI
UniProt Q92619: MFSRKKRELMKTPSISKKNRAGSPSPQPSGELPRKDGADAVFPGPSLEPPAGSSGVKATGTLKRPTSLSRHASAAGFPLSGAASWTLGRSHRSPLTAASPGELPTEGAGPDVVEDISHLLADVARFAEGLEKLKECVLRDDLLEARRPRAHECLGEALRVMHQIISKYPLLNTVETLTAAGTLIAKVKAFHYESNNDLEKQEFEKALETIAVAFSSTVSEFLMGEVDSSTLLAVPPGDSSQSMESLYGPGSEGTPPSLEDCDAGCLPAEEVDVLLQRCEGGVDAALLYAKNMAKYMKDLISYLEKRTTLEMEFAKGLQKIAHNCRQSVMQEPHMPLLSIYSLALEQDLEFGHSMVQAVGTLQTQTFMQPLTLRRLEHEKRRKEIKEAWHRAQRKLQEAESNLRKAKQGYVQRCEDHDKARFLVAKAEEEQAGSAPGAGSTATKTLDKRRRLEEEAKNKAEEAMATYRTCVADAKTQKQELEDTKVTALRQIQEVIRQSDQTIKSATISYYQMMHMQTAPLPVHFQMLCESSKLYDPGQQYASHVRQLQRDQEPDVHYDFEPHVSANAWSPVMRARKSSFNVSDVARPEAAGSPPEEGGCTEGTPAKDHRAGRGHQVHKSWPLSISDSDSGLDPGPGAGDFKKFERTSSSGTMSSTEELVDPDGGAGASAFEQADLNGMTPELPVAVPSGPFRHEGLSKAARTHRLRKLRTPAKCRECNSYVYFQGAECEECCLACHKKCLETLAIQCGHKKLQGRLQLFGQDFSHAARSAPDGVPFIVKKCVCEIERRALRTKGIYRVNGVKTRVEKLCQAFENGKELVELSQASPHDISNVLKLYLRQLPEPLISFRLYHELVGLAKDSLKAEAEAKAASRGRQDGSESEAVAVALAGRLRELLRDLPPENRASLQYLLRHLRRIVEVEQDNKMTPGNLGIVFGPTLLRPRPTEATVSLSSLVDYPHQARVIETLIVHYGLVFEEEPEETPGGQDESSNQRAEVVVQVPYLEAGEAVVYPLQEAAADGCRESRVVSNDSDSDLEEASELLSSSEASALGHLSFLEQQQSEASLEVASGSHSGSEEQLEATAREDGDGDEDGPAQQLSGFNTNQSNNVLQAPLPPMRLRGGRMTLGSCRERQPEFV
UniProt Q9P2R3: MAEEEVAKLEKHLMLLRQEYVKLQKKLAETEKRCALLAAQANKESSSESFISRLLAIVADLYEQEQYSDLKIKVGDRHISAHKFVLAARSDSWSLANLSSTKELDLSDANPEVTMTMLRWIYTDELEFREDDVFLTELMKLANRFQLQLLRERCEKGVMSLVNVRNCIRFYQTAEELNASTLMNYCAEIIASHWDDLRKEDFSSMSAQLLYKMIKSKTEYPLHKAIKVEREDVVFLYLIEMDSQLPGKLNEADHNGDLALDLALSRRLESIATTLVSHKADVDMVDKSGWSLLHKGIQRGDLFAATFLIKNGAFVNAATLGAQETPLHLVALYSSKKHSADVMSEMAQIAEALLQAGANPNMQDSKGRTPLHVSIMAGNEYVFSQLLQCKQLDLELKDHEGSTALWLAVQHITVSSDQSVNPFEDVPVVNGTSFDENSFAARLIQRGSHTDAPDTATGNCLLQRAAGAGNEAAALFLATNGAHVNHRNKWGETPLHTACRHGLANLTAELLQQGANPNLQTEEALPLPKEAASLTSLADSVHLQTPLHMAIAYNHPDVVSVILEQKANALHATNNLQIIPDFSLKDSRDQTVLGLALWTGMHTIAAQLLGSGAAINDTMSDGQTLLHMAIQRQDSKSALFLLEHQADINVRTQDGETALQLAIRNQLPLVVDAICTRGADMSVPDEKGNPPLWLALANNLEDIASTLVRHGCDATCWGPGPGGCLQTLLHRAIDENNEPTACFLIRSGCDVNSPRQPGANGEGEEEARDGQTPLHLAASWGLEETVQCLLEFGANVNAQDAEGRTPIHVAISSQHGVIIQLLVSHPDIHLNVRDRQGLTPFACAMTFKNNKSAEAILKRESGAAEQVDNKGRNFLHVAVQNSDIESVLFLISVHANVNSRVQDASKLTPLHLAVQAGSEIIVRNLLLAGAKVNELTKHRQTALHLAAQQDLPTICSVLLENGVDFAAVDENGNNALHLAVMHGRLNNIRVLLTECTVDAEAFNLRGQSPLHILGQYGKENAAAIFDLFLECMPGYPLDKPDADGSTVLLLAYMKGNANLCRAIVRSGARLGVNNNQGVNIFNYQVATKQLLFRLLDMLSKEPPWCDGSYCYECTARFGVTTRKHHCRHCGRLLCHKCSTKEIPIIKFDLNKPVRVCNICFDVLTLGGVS
UniProt Q92688: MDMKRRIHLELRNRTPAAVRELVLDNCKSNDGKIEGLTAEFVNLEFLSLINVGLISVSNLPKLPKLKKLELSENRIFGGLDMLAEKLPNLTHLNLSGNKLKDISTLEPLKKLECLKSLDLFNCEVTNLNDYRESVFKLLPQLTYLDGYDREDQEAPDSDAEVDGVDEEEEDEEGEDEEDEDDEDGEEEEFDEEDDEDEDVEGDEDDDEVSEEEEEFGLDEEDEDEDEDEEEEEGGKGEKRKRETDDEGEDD
UniProt O14497, whole entry, looked up: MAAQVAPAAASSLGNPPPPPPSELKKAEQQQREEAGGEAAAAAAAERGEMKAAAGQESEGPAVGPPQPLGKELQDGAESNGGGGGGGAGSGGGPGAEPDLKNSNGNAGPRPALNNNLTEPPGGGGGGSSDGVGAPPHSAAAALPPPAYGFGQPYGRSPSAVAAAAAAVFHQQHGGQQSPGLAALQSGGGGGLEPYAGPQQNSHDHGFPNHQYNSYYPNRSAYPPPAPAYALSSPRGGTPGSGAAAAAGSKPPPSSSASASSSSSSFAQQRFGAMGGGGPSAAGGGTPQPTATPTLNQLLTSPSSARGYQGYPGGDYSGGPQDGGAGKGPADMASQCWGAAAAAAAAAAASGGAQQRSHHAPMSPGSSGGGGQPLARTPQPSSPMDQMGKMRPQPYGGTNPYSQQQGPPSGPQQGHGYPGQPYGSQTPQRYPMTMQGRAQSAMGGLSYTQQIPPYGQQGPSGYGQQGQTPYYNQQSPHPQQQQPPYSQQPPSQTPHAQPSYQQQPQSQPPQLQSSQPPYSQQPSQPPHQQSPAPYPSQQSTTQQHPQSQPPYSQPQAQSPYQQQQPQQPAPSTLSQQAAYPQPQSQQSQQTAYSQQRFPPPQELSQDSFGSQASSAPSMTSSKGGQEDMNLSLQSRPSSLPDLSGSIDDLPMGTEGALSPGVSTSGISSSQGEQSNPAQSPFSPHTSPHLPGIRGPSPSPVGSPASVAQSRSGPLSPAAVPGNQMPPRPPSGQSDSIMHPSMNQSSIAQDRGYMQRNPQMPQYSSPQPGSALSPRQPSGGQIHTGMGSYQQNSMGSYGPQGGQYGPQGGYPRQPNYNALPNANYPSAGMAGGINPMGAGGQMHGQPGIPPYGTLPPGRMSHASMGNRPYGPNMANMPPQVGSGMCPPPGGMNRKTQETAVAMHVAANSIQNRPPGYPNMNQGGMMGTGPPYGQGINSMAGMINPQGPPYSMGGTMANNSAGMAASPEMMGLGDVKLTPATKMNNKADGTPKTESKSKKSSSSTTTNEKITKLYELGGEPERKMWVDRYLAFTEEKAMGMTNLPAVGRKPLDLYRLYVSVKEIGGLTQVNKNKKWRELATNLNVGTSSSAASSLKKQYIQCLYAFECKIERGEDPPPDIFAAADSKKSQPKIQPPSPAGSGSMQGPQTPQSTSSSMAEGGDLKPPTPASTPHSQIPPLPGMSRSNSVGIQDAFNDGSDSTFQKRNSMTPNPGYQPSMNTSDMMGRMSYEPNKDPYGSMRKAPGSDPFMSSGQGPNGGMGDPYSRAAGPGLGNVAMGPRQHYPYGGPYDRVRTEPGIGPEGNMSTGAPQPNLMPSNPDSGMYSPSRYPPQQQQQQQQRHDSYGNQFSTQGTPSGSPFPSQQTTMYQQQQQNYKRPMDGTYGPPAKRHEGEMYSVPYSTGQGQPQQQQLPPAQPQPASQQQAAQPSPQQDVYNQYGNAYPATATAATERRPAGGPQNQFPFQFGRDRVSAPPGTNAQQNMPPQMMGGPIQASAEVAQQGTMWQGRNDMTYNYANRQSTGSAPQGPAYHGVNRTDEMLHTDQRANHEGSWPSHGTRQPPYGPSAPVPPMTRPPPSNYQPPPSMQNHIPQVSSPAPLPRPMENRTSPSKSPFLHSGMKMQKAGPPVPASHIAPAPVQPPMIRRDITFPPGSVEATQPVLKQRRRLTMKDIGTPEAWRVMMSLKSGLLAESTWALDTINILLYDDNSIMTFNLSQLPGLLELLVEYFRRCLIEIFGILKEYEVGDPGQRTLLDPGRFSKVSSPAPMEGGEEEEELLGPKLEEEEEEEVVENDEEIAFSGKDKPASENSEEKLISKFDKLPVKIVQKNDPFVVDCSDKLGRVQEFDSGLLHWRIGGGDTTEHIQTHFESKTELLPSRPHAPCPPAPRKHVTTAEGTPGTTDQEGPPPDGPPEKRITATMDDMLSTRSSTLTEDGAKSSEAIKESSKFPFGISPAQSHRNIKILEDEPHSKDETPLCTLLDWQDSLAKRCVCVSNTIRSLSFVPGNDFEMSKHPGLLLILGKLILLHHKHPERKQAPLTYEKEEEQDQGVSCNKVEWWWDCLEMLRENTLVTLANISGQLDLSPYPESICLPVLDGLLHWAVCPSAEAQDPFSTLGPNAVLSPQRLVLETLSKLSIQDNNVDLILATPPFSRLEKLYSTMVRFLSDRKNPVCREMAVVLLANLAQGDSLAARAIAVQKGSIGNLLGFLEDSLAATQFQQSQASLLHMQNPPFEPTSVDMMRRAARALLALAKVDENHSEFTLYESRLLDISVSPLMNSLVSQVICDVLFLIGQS
UniProt P48444: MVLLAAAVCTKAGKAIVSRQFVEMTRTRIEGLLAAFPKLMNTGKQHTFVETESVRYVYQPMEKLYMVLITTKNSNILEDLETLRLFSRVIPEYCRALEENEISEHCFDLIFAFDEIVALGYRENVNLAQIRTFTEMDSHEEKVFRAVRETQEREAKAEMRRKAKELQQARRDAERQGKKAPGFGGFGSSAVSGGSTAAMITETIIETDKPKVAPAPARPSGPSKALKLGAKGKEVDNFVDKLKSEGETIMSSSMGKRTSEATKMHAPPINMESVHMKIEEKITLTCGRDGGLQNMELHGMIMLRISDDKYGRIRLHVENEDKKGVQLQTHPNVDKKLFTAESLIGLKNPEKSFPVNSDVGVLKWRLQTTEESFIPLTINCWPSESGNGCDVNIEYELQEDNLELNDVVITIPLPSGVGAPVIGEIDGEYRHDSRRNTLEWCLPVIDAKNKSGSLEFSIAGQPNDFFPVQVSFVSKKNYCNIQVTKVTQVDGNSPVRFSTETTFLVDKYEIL
UniProt Q6UXV4: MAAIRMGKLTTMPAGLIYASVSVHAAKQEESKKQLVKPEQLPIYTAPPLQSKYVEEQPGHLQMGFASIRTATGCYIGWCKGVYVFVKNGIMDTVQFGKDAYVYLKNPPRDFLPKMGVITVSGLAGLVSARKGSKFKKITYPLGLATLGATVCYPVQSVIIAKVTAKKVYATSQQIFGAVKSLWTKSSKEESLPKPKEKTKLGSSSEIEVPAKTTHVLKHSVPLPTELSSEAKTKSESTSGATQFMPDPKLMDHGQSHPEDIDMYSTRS

Experiments:
Test in all cases: log2 fold change, soluble protein after heating vs DMSO (PISA); higher = thermal stabilisation; K562 cells, 10 uM, 30 min; active = over 0.2 and 3.5 SD of the protein, either way, in both replicates (recomputed)
[1] = compound: C1=CC=C(C=C1)[C@H](COC2=CC3=C(C=C2)NC(=O)N3)NC(=O)C4=CC=CN(C4=O)CC5=CC(=C(C=C5)F)F
Procedure, shortened: (§1)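 K562 cells at 2×10^6 cells/mL were given 10 μM compound for 30 min. Aliquots then went through 3 min of heating across 48°C-58°C, were pooled, and were extracted in PBS with 0.5% NP-40 at 4°C, and the supernatant after 21,000xg for 90 min was quantified by TMTpro 16plex LC-MS/MS with channel sums equalised. Thermal stability relative to control samples, from duplicates, is given as log2 fold change.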

[2] = compound: CC1=C(SC2=C1C(=N[C@H](C3=NN=C(N32)C)CC(=O)N)C4=CC=C(C=C4)Cl)C
Procedure, shortened: as §1

[3] = compound: CC1=C2C(=CC=C1)N=C(N(C2=O)C3=CC=CC=C3C)CN4C=NC5=C(N=CN=C54)N
Procedure, shortened: as §1

[4] = compound: Cc1sc2c(c1C)C(c1ccc(Cl)cc1)=N[C@@H](CC(=O)OC(C)(C)C)c1nnc(C)n1-2
Procedure, shortened: as §1

[5] = compound: c1ccc([C@@H]2C[C@H]2NC2CCNCC2)cc1
Procedure, shortened: as §1

Measured: log2 fold change

APEX1 (UniProt P27695)
inactive: [1] -0.095 | [2] 0.004 | [3] 0.031 | [4] 0.023 | [5] -0.009

ANP32A (UniProt P39687)
inactive: [1] -0.054 | [2] 0.015 | [3] 0.017 | [4] -0.005 | [5] -0.047

AP1AR (UniProt Q63HQ0)
inactive: [1] 0.054 | [2] -0.068 | [3] -0.023 | [4] -0.002 | [5] 0.038

ARFIP1 isoform 2 (UniProt P53367)
inactive: [1] 0.009

ANP32E (UniProt Q9BTT0)
inactive: [1] -0.092 | [2] -0.037 | [3] 0.14 | [4] -0.012 | [5] 0.075

ARF6 (UniProt P62330)
inactive: [1] -0.044 | [2] 0.066 | [3] 0.008 | [4] -0.106 | [5] 0.016

ARHGEF7 isoform 5 (UniProt Q14155)
inactive: [1] 0.199 | [2] -0.062 | [3] 0.112 | [4] -0.047 | [5] 0.093

AP1G1 isoform 2 (UniProt O43747)
inactive: [1] -0.038 | [2] 0.035 | [3] 0.058 | [4] -0.003 | [5] -0.048

ANKRD54 (UniProt Q6NXT1)
inactive: [1] 0.064 | [2] -0.087 | [3] -0.031 | [4] 0.029 | [5] 0.157

ARG2 (UniProt P78540)
inactive: [1] 0.071 | [2] -0.061 | [3] -0.034 | [4] 0.025 | [5] 0.044

ARHGAP45 isoform 2 (UniProt Q92619)
inactive: [1] -0.027 | [2] -0.053 | [3] 0.024 | [4] 0.04 | [5] -0.037

ANKFY1 isoform 4 (UniProt Q9P2R3)
inactive: [1] 0.093 | [2] 0.103 | [3] 0.101 | [4] 0.118 | [5] -0.122

ANP32B (UniProt Q92688)
inactive: [1] -0.039 | [2] 0.04 | [3] 0.086 | [4] -0.019 | [5] -0.014

ANTXR2 isoform 4 (UniProt P58335)
inactive: [1] 0.056 | [2] 0.069 | [3] 0.065 | [4] 0.017 | [5] 0.044

ANXA2 (UniProt H0YMT9)
inactive: [1] 0.039

ANGPTL3 (UniProt Q9Y5C1)
inactive: [1] -0.058 | [2] -0.09 | [3] 0.108 | [4] 0.032 | [5] -0.135

ARID1A (UniProt O14497)
inactive: [1] -0.071 | [2] 0.079 | [3] 0.115 | [4] -0.152 | [5] -0.019

Taken from the results shown (2 entries):
ANGPTL3 (UniProt Q9Y5C1)
inactive: [1] -0.058 | [2] -0.09 | [3] 0.108 | [4] 0.032 | [5] -0.135

ARID1A (UniProt O14497)
inactive: [1] -0.071 | [2] 0.079 | [3] 0.115 | [4] -0.152 | [5] -0.019

More entries follow:

ANXA11 (UniProt P50995)
inactive: [1] 0.116 | [2] 0.073 | [3] 0.099 | [4] -0.036 | [5] -0.024

APOBEC3C (UniProt Q9NRW3)
inactive: [1] 0.034 | [2] -0.062 | [3] -0.121 | [4] 0.108 | [5] 0.111

APEH (UniProt P13798)
inactive: [1] 0.018 | [2] -0.003 | [3] 0.036 | [4] -0.004 | [5] 0.012

ANK1 isoform 14 (UniProt P16157)
inactive: [1] 0.024 | [2] -0.099 | [3] -0.031 | [4] 0.223 | [5] -0.102

ARCN1 (UniProt P48444)
inactive: [1] -0.039 | [2] 0.022 | [3] -0.02 | [4] -0.033 | [5] 0.001

ARHGEF18 (UniProt Q6ZSZ5)
inactive: [1] -0.167 | [2] -0.039 | [3] -0.13 | [4] 0.019 | [5] -0.031

APOB (UniProt P04114)
inactive: [1] 0.041 | [2] 0.028 | [3] 0.055 | [4] 0.034 | [5] -0.013

APOOL (UniProt Q6UXV4)
inactive: [1] 0.042 | [2] -0.003 | [3] 0.012 | [4] 0.012 | [5] 0.024
